Columns and labels:
[1] = system: PANC-1 Human Pancreatic Tumor Xenograft; experiment: PANC-1 xenograft tumor growth inhibition study (Example 3); type: in vivo, mouse xenograft
Text: (§1) (Madison, Wis.). […] Tumor measurements were converted to cubic millimeter tumor volume using the formula^(5): […] Final mean tumor volume ±SEM for each group was reported; animals experiencing partial or complete tumor regressions or animals experiencing technical or drug-related deaths were censored from these calculations. […] TGI values for each treatment group are reported at study completion; these calculations are based on the final study day. […] If partial tumor regression was reported in multiple animals within one group, a mean value was determined. Individual mice lacking palpable tumors were classified as undergoing complete regression (CR). Animals experiencing partial or complete tumor regressions were censored from TGI calculations. However, data from these animals was included in statistical analysis calculations. In addition, weight data from these animals was included in daily and final group calculations. Tumor Necrosis-Degree of tumor necrosis was rated at each tumor measurement using the following arbitrary index: [table]

[2] = system: BxPC-3 Human Pancreatic Tumor Xenograft; experiment: BxPC-3 xenograft tumor growth inhibition study (Example 3); type: in vivo, mouse xenograft
Text: as §1

| Structure (SMILES) | Tumor Necrosis ([1]; FK228 2.5 mg/kg IV Q4Dx3) | Tumor Necrosis ([1]; FK228 5 mg/kg IV Q4Dx3) | Tumor Necrosis ([2]; FK228 2.5 mg/kg IV Q4Dx3) | Tumor Necrosis ([2]; FK228 5 mg/kg IV Q4Dx3) | Tumor Necrosis ([1]; Gemcitabine 40 mg/kg IP Q3Dx4) | Tumor Necrosis ([1]; Gemcitabine 80 mg/kg IP Q3Dx4) | Tumor Necrosis ([2]; Gemcitabine 40 mg/kg IP Q3Dx4) | Tumor Necrosis ([2]; Gemcitabine 80 mg/kg IP Q3Dx4) |
| --- | --- | --- | --- | --- | --- | --- | --- | --- |
| C/C=C1\NC(=O)[C@H]2CSSCC/C=C/[C@H](CC(=O)N[C@H](C(C)C)C(=O)N2)OC(=O)[C@H](C(C)C)NC1=O [FK228, romidepsin] | 1/9 animals reported slight tumor necrosis, 1/9 reported mild tumor necrosis, 2/9 reported moderate necrosis, and 1/9 reported severe necrosis | 2/9 animals reported slight tumor necrosis, and 1/9 reported moderate necrosis | 2/9 animals reported mild tumor necrosis | 2/9 animals reported mild tumor necrosis |  |  |  |  |
| Nc1ccn([C@@H]2O[C@H](CO)[C@@H](O)C2(F)F)c(=O)n1 [Gemcitabine, gemcitabine] |  |  |  |  | 1/9 animals reported mild tumor necrosis and 4/9 reported moderate necrosis | 1/9 animals reported slight tumor necrosis, 2/9 reported mild tumor necrosis, and 1/9 reported moderate necrosis | 1/9 animals reported severe tumor necrosis | 1/9 animals reported mild tumor necrosis |

— patent US20100137239A1, “GEMCITABINE COMBINATION THERAPY” (GLOUCESTER PHARMACEUTICALS, priority 2006, published 2010)
